These are yes or no findings as the source states them, for the method shown. Binding can be weak; no strength is given.

For one molecule, binding results are on record in article PMC9100763.

In this test the target is EgrIAA20 (Eucalyptus grandis). Nature of the test: two-hybrid; targeted two-hybrid: Gal4 BD and Gal4 AD fusions co-transformed in yeast; growth on quadruple dropout medium lacking leucine, tryptophan, histidine and adenine (QDO/X/A in the methods), DDO as growth control; 10-fold gradient dilution in Figure 9.

B1: Arabidopsis ARF5/MP (AtARF5) (protein, UniProt P93024 1-902)
chain: MMASLSCVEDKMKTSCLVNGGGTITTTTSQSTLLEEMKLLKDQSGTRKPVINSELWHACAGPLVCLPQVGSLVYYFSQGHSEQVAVSTRRSATTQVPNYPNLPSQLMCQVHNVTLHADKDSDEIYAQMSLQPVHSERDVFPVPDFGMLRGSKHPTEFFCKTLTASDTSTHGGFSVPRRAAEKLFPPLDYSAQPPTQELVVRDLHENTWTFRHIYRGQPKRHLLTTGWSLFVGSKRLRAGDSVLFIRDEKSQLMVGVRRANRQQTALPSSVLSADSMHIGVLAAAAHATANRTPFLIFYNPRACPAEFVIPLAKYRKAICGSQLSVGMRFGMMFETEDSGKRRYMGTIVGISDLDPLRWPGSKWRNLQVEWDEPGCNDKPTRVSPWDIETPESLFIFPSLTSGLKRQLHPSYFAGETEWGSLIKRPLIRVPDSANGIMPYASFPSMASEQLMKMMMRPHNNQNVPSFMSEMQQNIVMGNGGLLGDMKMQQPLMMNQKSEMVQPQNKLTVNPSASNTSGQEQNLSQSMSAPAKPENSTLSGCSSGRVQHGLEQSMEQASQVTTSTVCNEEKVNQLLQKPGASSPVQADQCLDITHQIYQPQSDPINGFSFLETDELTSQVSSFQSLAGSYKQPFILSSQDSSAVVLPDSTNSPLFHDVWDTQLNGLKFDQFSPLMQQDLYASQNICMSNSTTSNILDPPLSNTVLDDFCAIKDTDFQNHPSGCLVGNNNTSFAQDVQSQITSASFADSQAFSRQDFPDNSGGTGTSSSNVDFDDCSLRQNSKGSSWQKIATPRVRTYTKVQKTGSVGRSIDVTSFKDYEELKSAIECMFGLEGLLTHPQSSGWKLVYVDYESDVLLVGDDPWEEFVGCVRCIRILSPTEVQQMSEEGMKLLNSAGINDLKTSVS
Turning to B1, the binding entry is recorded as “binds”.
